Record: PubChem BioAssay AID1224826 (NIAID, 2016)
The whole screen tested about 17,000 reagents; below is an unselected part. Of all reagents, about 1,110 (6.6%) got an active call. 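Active means lowered or raised reporter signal; replicate intensities are raw and not normalised per plate.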 Unmarked entries are inactive. Not all columns of the deposit are shown.

Test: 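Genes that change LPS-induced Tnf promoter activity in mouse macrophages when knocked down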 (primary screen)
Cells: RAW264.7 G9 macrophages from mouse bearing reporters for p65 (GFP) and the Tnf promoter (mCherry)
Reagent: siRNA pool against mouse genes, 100 nM
Timing: 16 h of LPS stimulation, after 2 days of siRNA transfection
Challenge: bacterial lipopolysaccharide (Salmonella minnesota R595), 10 ng/ml
Read-out: 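Nuclear mCherry signal of the Tnf promoter reporter measured by imaging after background removal, scaled to each plate median and turned into robust z-scores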
Scale: Tnf reporter robust z-score: higher = stronger Tnf promoter reporter signal after LPS
Rule for the call: 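Called active when robust z-score is at most -1.3, matching the median of the Tlr4 knock-down control, or over 3; control wells and wells with under 50 cells never active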
Calls: active = Tnf reporter clearly lowered or raised; inactive = no clear change in Tnf reporter

Pou6f2: Tnf reporter robust z-score = 1.48; fewer than 50 cells in well = enough cells in well
Klra20: Tnf reporter robust z-score = -1.06; fewer than 50 cells in well = enough cells in well
Nlrp12: Tnf reporter robust z-score = 0.61; fewer than 50 cells in well = enough cells in well
Zfp956: Tnf reporter robust z-score = 0.09; fewer than 50 cells in well = enough cells in well
Nkx3-2: Tnf reporter robust z-score = 0.27; fewer than 50 cells in well = enough cells in well
Mmp17: Tnf reporter robust z-score = 0.61; fewer than 50 cells in well = enough cells in well
Mix23: Tnf reporter robust z-score = -0.53; fewer than 50 cells in well = enough cells in well
Ncoa3: Tnf reporter robust z-score = -0.16; fewer than 50 cells in well = enough cells in well
Bcl2l14: Tnf reporter robust z-score = 2.25; fewer than 50 cells in well = enough cells in well
Rs1: Tnf reporter robust z-score = -0.43; fewer than 50 cells in well = enough cells in well
Cbr3: Tnf reporter robust z-score = 0.51; fewer than 50 cells in well = enough cells in well
Mrgpra5: Tnf reporter robust z-score = 0.2; fewer than 50 cells in well = enough cells in well
Ptprz1: Tnf reporter robust z-score = 0.12; fewer than 50 cells in well = enough cells in well
Tlr2: Tnf reporter robust z-score = -0.72; fewer than 50 cells in well = enough cells in well
Tcf3: Tnf reporter robust z-score = 1.17; fewer than 50 cells in well = enough cells in well
Col19a1: Tnf reporter robust z-score = 1.36; fewer than 50 cells in well = enough cells in well
Coa8: Tnf reporter robust z-score = 2.47; fewer than 50 cells in well = enough cells in well
Ugt2b34: Tnf reporter robust z-score = -0.99; fewer than 50 cells in well = enough cells in well
Or10al4: fewer than 50 cells in well = fewer than 50 cells per well; well left out of calls
Slc60a1: Tnf reporter robust z-score = -0.17; fewer than 50 cells in well = enough cells in well
Brca1: fewer than 50 cells in well = fewer than 50 cells per well; well left out of calls

Already shown: an excerpt of the list.
Mrgpra5: Tnf reporter robust z-score = 0.2; fewer than 50 cells in well = enough cells in well
Ptprz1: Tnf reporter robust z-score = 0.12; fewer than 50 cells in well = enough cells in well
Tlr2: Tnf reporter robust z-score = -0.72; fewer than 50 cells in well = enough cells in well
